Laboratory results: PMC6191436
These are yes or no findings as the source states them, for the method shown. In cells and extracts the contact can be indirect. Binding can be weak; no strength is given.

Protein sequences, listed by entry. Tags and fused reporters are not part of them.
UniProt P14635: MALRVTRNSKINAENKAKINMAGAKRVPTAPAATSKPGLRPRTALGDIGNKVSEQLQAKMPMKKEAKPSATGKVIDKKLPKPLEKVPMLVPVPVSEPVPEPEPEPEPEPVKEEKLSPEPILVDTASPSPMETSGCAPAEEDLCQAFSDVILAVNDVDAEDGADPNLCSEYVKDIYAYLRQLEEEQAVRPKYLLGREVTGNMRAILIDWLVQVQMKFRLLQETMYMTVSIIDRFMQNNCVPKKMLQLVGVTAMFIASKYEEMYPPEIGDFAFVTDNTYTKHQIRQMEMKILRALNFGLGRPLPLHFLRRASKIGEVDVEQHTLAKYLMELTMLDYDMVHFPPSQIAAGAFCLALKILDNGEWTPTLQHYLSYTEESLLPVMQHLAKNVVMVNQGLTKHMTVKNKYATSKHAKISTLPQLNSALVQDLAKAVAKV

How the values were obtained:
FLAG-cyclin B1 [1] = biological target: FLAG-cyclin B1 (UniProt P14635); experiment: co-IP; MCF7 cells transfected with Myc-BRCA1-Δ11 and FLAG-cyclin B1, synchronised (aphidicolin 0.3 μM 24 h, release 8 h, nocodazole 100 ng/mL 24 h, release 2 h), without or with irradiation (10 Gy); anti-FLAG antibody-conjugated agarose; Western blot with anti-Myc
FLAG-cyclin B1 [2] = biological target: FLAG-cyclin B1 (UniProt P14635); experiment: co-IP; lysates of transfected 293T cells, with or without irradiation (10 Gy); anti-FLAG M2 affinity gel, eluted with FLAG peptides; immunoblot

binding (FLAG-cyclin B1 [1]): binds
binding (FLAG-cyclin B1 [2]): binds
Substance: Myc-BRCA1-Δ11 (from UniProt P38398-5)
